{
  "source": "PubChem BioAssay AID504834",
  "about": "(National Center for Advancing Translational Sciences (NCATS), 2011)",
  "note": "The campaign covered roughly 320,000 compounds. About 22,000 (6.9%) were called active. Inconclusive results, whose numbers are uncertain, are shown with a selection of clear calls. Calls follow the shape of the dose curve; as a rule, active = well fitted inhibition curve with a large enough effect; inconclusive = small, poorly fitted or top-dose-only effect, or another doubt; inactive = no such curve, though single readings can be large or run the other way. A potency beside an inconclusive call is a rough fit, not a confirmed value. Potency is read from the fitted curve at half-maximal effect.",
  "data": [
    {"assay": "Primary qHTS for delayed death inhibitors of the malarial parasite plastid, 96 hour incubation", "settings": "P. falciparum luciferase reporter growth; series mostly up to 28.7 µM", "procedure,_shortened": "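96 h incubation, 37 C, 5% CO2, of luciferase-reporter P. falciparum-infected RBCs (2% hematocrit, 0.05% parasitemia final) with test compounds; endpoint luminescence.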", "values": [
      {"smiles": "COc1cc2c(cc1NC(=O)C(C)Sc1cccc[n+]1[O-])oc1ccccc12", "note": "(stereo not drawn)", "Potency": "inactive"},
      {"smiles": "COC(=O)CN1C(c2cccc(Cl)c2)=Nc2ccc(Cl)cc2C1c1ccccc1", "note": "(stereo not drawn)", "Potency": "active: 1.65 µM"},
      {"smiles": "CCCn1c(N)c(C(=O)CSc2n[nH]c(-c3ccccc3F)n2)c(=O)n(C)c1=O", "Potency": "inconclusive: 18.5 µM [inhibitor, single point]"},
      {"smiles": "Cc1ccc(S(=O)(=O)NC(Cc2cnc[nH]2)C(=O)O)cc1", "note": "(stereo not drawn)", "Potency": "inconclusive: 13.1 µM [inhibitor, single point]"},
      {"smiles": "CC(=O)c1ccc(S(=O)(=O)N2CCN(C(=O)c3ccc(COc4ccccc4)o3)CC2)cc1", "Potency": "inconclusive: 16.5 µM [inhibitor, single point]"},
      {"smiles": "CCOc1cnc(-c2c(-c3ccccc3Cl)noc2C)o1", "Potency": "inconclusive: 2.94 µM [inhibitor, partial curve, poor fit]"},
      {"smiles": "OC(CSc1c(Cl)cccc1Cl)CN1CCN(c2ccc(F)cc2)CC1", "note": "(stereo not drawn)", "Potency": "inconclusive: 11.7 µM [inhibitor, single point]"},
      {"smiles": "COc1cccc2nc3cc(C)c(C)cc3nc12", "Potency": "inactive"},
      {"smiles": "CCOc1ccc(C(=O)Nc2cccc(NC(=O)c3cccs3)c2)cc1[N+](=O)[O-]", "Potency": "active: 11.7 µM"},
      {"smiles": "C=CCn1c(CCNC(=O)c2cccs2)nnc1SCC(=O)c1ccc(Br)cc1", "Potency": "inconclusive: 10.4 µM [inhibitor, partial curve, poor fit]"},
      {"smiles": "COc1ccc(C(=O)NCC(=O)Nc2ccc(F)cc2)cc1OC", "Potency": "inconclusive: 20.8 µM [inhibitor, partial curve, poor fit]"},
      {"smiles": "COc1cc(/C=N/NS(=O)(=O)c2ccc(C)c([N+](=O)[O-])c2)cc([N+](=O)[O-])c1O", "Potency": "inconclusive: 14.7 µM [inhibitor, single point]"},
      {"smiles": "O=C(Nc1ccc2c(c1)OCO2)C1CC(c2ccccc2O)=NO1", "note": "(stereo not drawn)", "Potency": "inconclusive: 18.5 µM [inhibitor, single point]"},
      {"smiles": "COc1ccc(-c2nnc(SCC(=O)N3CCc4ccccc4C3)o2)cc1", "Potency": "inconclusive: 0.415 µM [inhibitor, full curve, poor fit]"},
      {"smiles": "O=C(N/N=C/c1cccc(O)c1)C(=O)N1CCCCCC1", "Potency": "inconclusive: 7.38 µM [inhibitor, partial curve, poor fit]"},
      {"smiles": "CCN(CC(=O)Nc1ccccc1C(F)(F)F)C(=O)c1ccccc1Cc1ccccc1", "Potency": "inconclusive: 13.1 µM [inhibitor, single point]"},
      {"smiles": "COc1cccc(-c2nnn(CC(=O)NC3CCCC3)n2)c1OC", "Potency": "active: 9.28 µM"},
      {"smiles": "Cc1[nH]c2ccccc2c1/C=C/C(=O)c1ccncc1", "Potency": "inconclusive: 0.0657 µM [inhibitor, full curve, poor fit]"},
      {"smiles": "CCN(CC)S(=O)(=O)c1ccc(NCCCn2ccnc2)c([N+](=O)[O-])c1", "Potency": "inconclusive: 5.86 µM [inhibitor, partial curve, poor fit]"},
      {"smiles": "Cc1cc(C)c2nc(-c3ccccn3)cc(C(=O)NCCc3ccc(S(N)(=O)=O)cc3)c2c1", "Potency": "inactive"},
      {"smiles": "Cc1c(C)c2ccc(OCC(=O)NC3CCN(Cc4ccccc4)CC3)cc2oc1=O", "Potency": "inconclusive: 18.5 µM [inhibitor, single point]"},
      {"smiles": "Cc1cc(=O)c2c(O)c3c(O)cc(=O)c4c3c3c(cc(O)c1c23)C(C)(C)C=4O", "Potency": "active: 1.51 µM"},
      {"smiles": "CCc1nnc(NC(=O)CSc2nnc(CNc3ccc(F)cc3)n2C2CCCCC2)s1", "Potency": "inactive"},
      {"smiles": "CCCCC(CC)CNC(=O)c1ncn[nH]1", "note": "(stereo not drawn)", "Potency": "inconclusive: 6.57 µM [inhibitor, partial curve, poor fit]"},
      {"smiles": "Cc1sc(N/N=C/c2cccnc2)nc1-c1ccccc1", "Potency": "inconclusive: 18.5 µM [inhibitor, single point]"},
      {"smiles": "C=CCc1ccccc1OCC(CN1CCCCC1)OC(C)=O", "note": "(stereo not drawn)", "Potency": "inconclusive: 0.262 µM [inhibitor, full curve, poor fit]"},
      {"smiles": "O=C(CN1CCN(S(=O)(=O)c2ccccc2Cl)CC1)NCC1(N2CCOCC2)CCCCC1", "Potency": "inconclusive: 14.7 µM [inhibitor, partial curve, poor fit]"},
      {"smiles": "CC(=O)Nc1ccc(Nc2ncnc3c2cnn3-c2ccc(C)cc2C)cc1", "Potency": "inactive"},
      {"smiles": "CC1COc2ccccc2N1S(=O)(=O)c1cc(Cl)ccc1Cl", "note": "(stereo not drawn)", "Potency": "inactive"},
      {"smiles": "CC(C)(C)c1ccc(-c2cn(-c3ccc(Br)cc3)c3[n+]2CCCS3)cc1", "Potency": "inconclusive: 2.08 µM [inhibitor, partial curve, poor fit]"},
      {"smiles": "COc1cccc2c1OCC(C(=O)Nc1nccs1)=C2", "Potency": "inactive"},
      {"smiles": "CC(=O)Nc1ccc(S(=O)(=O)N2CCN=C2SCc2cccnc2)cc1", "Potency": "inactive"},
      {"smiles": "Cc1ccc(OCC(=O)Nc2sc3c(c2C#N)CCC3)cc1C", "Potency": "inconclusive: 18.5 µM [inhibitor, single point]"},
      {"smiles": "CC(C)Oc1ccc(C2CC(=O)N(c3ccc(N(C)C)cc3)C2=O)cc1", "note": "(stereo not drawn)", "Potency": "inconclusive: 0.117 µM [inhibitor, full curve, poor fit]"},
      {"smiles": "CC(=O)N1CCN(c2ccc(NC(=O)c3ccc(C)c([N+](=O)[O-])c3)cc2)CC1", "Potency": "inconclusive: 0.0657 µM [inhibitor, full curve, poor fit]"},
      {"smiles": "Cc1nc(SCC(=O)NC2CCCC2)[nH]c(=O)c1Cc1ccccc1", "Potency": "inconclusive: 1.17 µM [inhibitor, full curve, poor fit]"},
      {"smiles": "CCn1c(C)cc(=S)c2ccccc21", "Potency": "inactive"},
      {"smiles": "CC1C(=O)N2CCCc3cc(NC(=O)C(=O)NCCc4c[nH]c5ccccc45)cc1c32", "note": "(stereo not drawn)", "Potency": "active: 4.15 µM"},
      {"smiles": "COc1ccc(S(=O)(=O)NCC2CCCO2)cc1Cl", "note": "(stereo not drawn)", "Potency": "inconclusive: 11.7 µM [inhibitor, single point]"},
      {"smiles": "CCN(CC)CCC#CC1(O)c2ccccc2-c2ccccc21", "Potency": "active: 3.29 µM"},
      {"smiles": "O=C(NCC(=O)N(c1ccc2c(c1)OCCO2)C(C(=O)NC1CCCC1)c1ccco1)c1ccco1", "note": "(stereo not drawn)", "Potency": "active: 0.828 µM"},
      {"smiles": "Cc1ccc2c(c1)N(C(=O)CCC(=O)N1CCC(C(N)=O)CC1)CCO2", "Potency": "inactive"},
      {"smiles": "Cc1occc1-c1nnc(SCC(=O)NC2CCCCC2C)o1", "note": "(stereo not drawn)", "Potency": "inactive"},
      {"smiles": "CCc1ccc(C2CC(=O)N(c3cccc(F)c3)C3=C2C(=O)OC3)cc1", "note": "(stereo not drawn)", "Potency": "inconclusive: 0.0657 µM [inhibitor, full curve, poor fit]"},
      {"smiles": "O=C(NCc1cccnc1)c1noc2c1CCCC2", "Potency": "inconclusive: 11.7 µM [inhibitor, single point]"},
      {"smiles": "CC1Cc2ccccc2N1CC(=O)c1c(N)n(Cc2ccccc2)c(=O)n(C)c1=O", "note": "(stereo not drawn)", "Potency": "active: 9.28 µM"},
      {"smiles": "CCN(c1ccccc1)S(=O)(=O)c1ccc(Cl)c(NC(=O)COC(=O)C2CC2C)c1", "note": "(stereo not drawn)", "Potency": "inactive"},
      {"smiles": "COc1ccc(S(=O)(=O)CC(=O)c2cc3cccc(C)c3oc2=O)cc1", "Potency": "inactive"},
      {"smiles": "O=C(c1ccccc1-c1nc(-c2ccccc2)no1)N1CCCC1", "Potency": "inconclusive: 0.415 µM [inhibitor, full curve, poor fit]"},
      {"smiles": "NC(=O)[C@@H]1CCCN1Cc1c(C(=O)N2CCc3ccccc3C2)nc2ccc(Cl)cn12", "Potency": "inconclusive: 0.0117 µM [inhibitor, full curve, poor fit]"},
      {"smiles": "COCCC1CCCCN1C(=O)c1cc(COc2ccc(C)nc2)on1", "note": "(stereo not drawn)", "Potency": "inconclusive: 18.5 µM [inhibitor, single point]"},
      {"smiles": "CC1C(OC(=O)CCC(=O)NC(C)(C)CO)O[C@H]2OC3(C)CC[C@H]4[C@H](C)CCC1C24OO3", "note": "(stereo partly drawn)", "Potency": "inconclusive: 0.0026 µM [inhibitor, full curve, poor fit]"},
      {"smiles": "CN(C)S(=O)(=O)c1cc(NC(=O)COC(=O)Cc2ccc(Br)cc2)ccc1Cl", "Potency": "inconclusive: 18.5 µM [inhibitor, single point]"},
      {"smiles": "CCOc1ccc(NC(=O)CSc2ncn[nH]2)cc1", "Potency": "active: 11.7 µM"},
      {"smiles": "CCc1ccccc1OCC(=O)Nc1ccc2c(c1)OCCO2", "Potency": "inconclusive: 9.28 µM [inhibitor, single point]"},
      {"smiles": "O=C(c1cccc(F)c1)N1CCCc2ccccc21", "Potency": "inconclusive: 18.5 µM [inhibitor, single point]"},
      {"smiles": "COc1ccc(NC(=O)CC2Oc3ccc(C)cc3NC2=O)cc1", "note": "(stereo not drawn)", "Potency": "inconclusive: 20.8 µM [inhibitor, single point]"},
      {"smiles": "COc1ccc(S(=O)(=O)N2CCC3(CC2)OCCN3S(=O)(=O)c2cccs2)cc1OC", "Potency": "active: 9.28 µM"},
      {"smiles": "O=c1cc(-c2ccccc2)nc2cc(-c3ccco3)[nH]n12", "Potency": "inconclusive: 2.94 µM [inhibitor, single point]"},
      {"smiles": "Cc1ccc2[nH]c3c(c2c1)CN(C(=O)CN1CCN(c2ccccc2F)CC1)CC3", "Potency": "inconclusive: 13.1 µM [inhibitor, partial curve, poor fit]"},
      {"smiles": "Cc1nn(-c2ccccc2)c(C)c1[N+](=O)[O-]", "Potency": "inconclusive: 2.62 µM [inhibitor, full curve, poor fit]"},
      {"smiles": "CCC(C)NC(=O)CSc1nc2ccsc2c(=O)n1-c1ccc(OC)cc1", "note": "(stereo not drawn)", "Potency": "active: 11.7 µM"},
      {"smiles": "COc1ccc(OC)c(NC(=O)c2cnn(-c3ccccc3)c2C)c1", "Potency": "inconclusive: 3.29 µM [inhibitor, partial curve]"},
      {"smiles": "Cc1ccc(CC(=O)Nc2nc3ccccc3[nH]2)cc1C", "Potency": "inconclusive: 0.37 µM [inhibitor, partial curve, poor fit]"},
      {"smiles": "Cn1c(CNC2CCCCC2)nc2ccccc21", "Potency": "inconclusive: 4.65 µM [inhibitor, partial curve, poor fit]"},
      {"smiles": "Oc1ccc2ccccc2c1CN1CCN(c2ccccc2F)CC1", "Potency": "inactive"},
      {"smiles": "C#CCOCCOCCOCCNc1nc(N2CCOCC2)nc(N2CCN(C(=O)[C@H](Cc3cc4ccccc4[nH]3)n3cc([C@@H](N)Cc4ccc(O)cc4)nn3)CC2)n1", "Potency": "active: 1.85 µM"},
      {"smiles": "COc1cccc(C(=O)OCc2cc(=O)oc3c(C)c(C)ccc23)c1OC", "Potency": "inactive"}
    ]}
  ]
}
